In publication PMC10866652:
Results are given in words; binding and its absence hold for the method and conditions named. Binding seen in cells or lysates may run through a third protein. These calls come from enrichment with a bait or labelling near it, and not all partners need be listed. Where a sequence is shown, tags or fusion partners need not be part of it.

Target: GST-fused domain H of Syn2a (mouse)
Experiment: affinity purification with mass spectrometry; GST pull-down with GST-Syn2a-DomH followed by mass spectrometry; 108 proteins identified; input not stated; only the target purified

Binder | binding
Syngr3 (found in the GST-Syn2a-DomH pull-down by mass spectrometry) (protein, UniProt Q8R191 1-229) MEGASFGAGRAGAAFDPVSFARRPQTLLRVVSWVFSIAVFGPIVNEGYVNSDSGPELRCVFNGNAGACRFGVVLGLGAFIACVAFLLLDVRFQQISSVRDRRRAVLLDLGFSGVWSFLWFVGFCFLTNQWQRTTPGPGTAQAGDAARAAIAFSFFSILSWVALTVKALQRFRLGTDMSLFATDQLGTGAAQAYPGYPVGSGVEGTETYQSPPFTETLDTSSKGYQVPAY | binds
Ras-related protein Rab3a (found in the GST-Syn2a-DomH pull-down by mass spectrometry) (protein, UniProt P63011 1-220) MASATDSRYGQKESSDQNFDYMFKILIIGNSSVGKTSFLFRYADDSFTPAFVSTVGIDFKVKTIYRNDKRIKLQIWDTAGQERYRTITTAYYRGAMGFILMYDITNEESFNAVQDWSTQIKTYSWDNAQVLLVGNKCDMEDERVVSSERGRQLADHLGFEFFEASAKDNINVKQTFERLVDVICEKMSESLDTADPAVTGAKQGPQLTDQQAPPHQDCAC | binds
